In patent publication US10723744B2, “Transplantation therapies” (Aphios Corporation, priority 2007, dated 2020):

Tested on: HUVECs
Assay: Neutrophil TEM restoration studies with PKC inhibitors
Type: cell-based, human
Details: HUVEC; inhibitor pretreatment (Go-6983, Go-6976: 1, 10, 100 nM), then 100 nM Bryostatin-1
Procedure: HUVECs were pretreated with Go-6983 (1, 10, 100 nM), or Go-6976 (1, 10, 100 nM) for 30 minutes, then spiked with 100 nM Bryostatin-1 for 1 hour. HUVECs previously nucleofected with PKC-δ, -ε, or control siRNA were just treated in Bryostatin-1 for 1 hour. HUVECs were washed three times and placed in a new plate containing either 500 μL 100 nM LTB4, or HBSS alone for control. Neutrophils were allowed to migrate for 3 h at 37° C. Migration was stopped by removing the inserts and migration was measured using the MPO assay.
Neutrophil migration was measured using myeloperoxidase (MPO) analysis. Cell culture inserts were first removed and plates were spun at 1,500 RPM for 5 min. The supernatant was removed, and MPO activity was measured using TMB/peroxide as chromogen. The reaction was stopped with sulfuric acid and absorbance was read at 450 nm using a microplate reader. All experiments were performed n=6. Data was expressed as “% neutrophil migration”, which allowed cumulative statistical analysis to be done and account for unpreventable batch-to-batch variations.

CN[C@@H]1C[C@H]2O[C@@](C)([C@@H]1OC)n1c3ccccc3c3c4c(c5c6ccccc6n2c5c31)C(=O)NC4 [staurosporine]
restoration of PMN TEM in response to LTB4 by PKC inhibitors (reversal of Bryostatin-1 protection): did not restore PMN TEM
